From patent publication US10954333B2, “Metal-bearing urethanized polymer soluble in a low-volatile organic compound solvent” (EGE KIMYA SANAYI VE TICARET A. S., priority 2015, dated 2021)

Experiment: Performance as polyester curing accelerator
Conditions: 0.2 phr accelerator, 2 phr Butanox M 60 initiator, 25° C.

Substance: cobalt 2-ethylhexanoate [Cobalt Octoate]
- PEAK TEMP: 145 °C
